Assay results as given in patent publication US20190388377A1, “COMPOSITIONS AND METHODS FOR THE TREATMENT OF LIVER DISEASES AND DISORDERS” (AXCELLA HEALTH INC., priority 2018, published 2019).

Experiments:
[1] = system: primary human hepatic stellate cells; assay: META-rank composite score over aSMA, ProC3, EdU in the HSC model; type: cell-based; conditions: lower score = more optimal
M1 macrophage = assay: META-rank composite score over IL-6 and TNFa in the M1 macrophage model; type: cell-based, human

SMILES	Meta-Rank ([1]; AA Conc. 20X)	Meta-Rank (M1 macrophage; AA Conc. 20X)	other results
C[N+](C)(C)C[C@H](O)CC(=O)[O-] [Car, L-carnitine]	–	–	Meta-Rank ([1]; AA Conc. 5X): 14.333; Meta-Rank (M1 macrophage; 5 mM): 10
CC[C@H](C)[C@H](N)C(=O)O [I, L-isoleucine]	19	14	–
CC(C)C[C@H](N)C(=O)O [L, L-leucine]	17.333	13	–
CC(=O)N[C@@H](CS)C(=O)O [Nac, N-acetylcysteine]	–	–	Meta-Rank ([1]; 5 mM): 7.667; Meta-Rank (M1 macrophage; 5 mM): 3.5
NC(=O)CC[C@H](N)C(=O)O [Q, L-glutamine]	11.667	18	–
N=C(N)NCCC[C@H](N)C(=O)O [R, L-arginine]	–	–	Meta-Rank ([1]; AA Conc. 25X): 11.667
N[C@@H](CO)C(=O)O [S, L-serine]	–	–	Meta-Rank ([1]; AA Conc. 25X): 14; Meta-Rank (M1 macrophage; AA Conc. 25X): 15.5
CC(C)[C@H](N)C(=O)O [V, L-Valine]	13.667	12	–
